Results are given in words; binding and its absence hold for the method and conditions named.
Assays:
VQAVYK peptide (human) = test: ThT fluorescence aggregation assay + TEM; peptide alone, 200 µM in 1X PBS + 25 µM ThT, 37 °C, one week, endpoint ThT; fibrils checked by negative-stain TEM; self-assembly into fibrils; both purified
VQIAYK peptide (human) = test: as above

Binder	binding (VQAVYK peptide (human))	binding (VQIAYK peptide (human))
VQAVYK [VQAVYK peptide]	no binding (tested: 200 µM)	
VQIAYK [VQIAYK peptide]		no binding (tested: 200 µM)

— publication PMC9935906, “Network of hotspot interactions cluster tau amyloid folds” (Nature Communications, 2023)
